Source: PubChem BioAssay AID652243 (Drosophila RNAi Screening Center, 2013)
Assay: 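Knock-downs that decrease or increase androgen receptor reporter signal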 (primary screen). System: Drosophila S2R+ cells. Reagents: long dsRNA against Drosophila genes. Duration: 72 h (48 h, then 24 h hormone). Challenge: synthetic androgen R1881 at 10 nM for 24 h. Measurement: 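Firefly light from an androgen-responsive reporter and Renilla control light per well, raw and unnormalised, for each of two replicates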. Reading the numbers: firefly reporter light: higher = more light from androgen-responsive reporter; Renilla control light: higher = more constitutive control signal (cell number, transfection). Active means: 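Hit when the log firefly-to-Renilla ratio dropped or increased by a fixed fold versus the mean of GFP or LacZ controls across duplicate plates; lowering cut given as 1.5 and as 3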. Meaning of the calls: active = hit: reporter lowered or raised; inactive = no hit.
In all, the deposit lists about 24,000 reagents; below is an unselected part of those with a known target gene and a result. In the full data, 246 (1%) got an active call. 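Plates not normalised; calls are printed but the firefly/Renilla ratio behind them is not deposited; fold cut for lowering reported inconsistently.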 Raw values are not corrected between plates. The numbers tell different reagents against one gene apart. Names joined by + are all predicted targets of the reagent. Not given: the amount of reagent.

Target gene | dsRNA no. | firefly reporter light, replicate 1 | firefly reporter light, replicate 2 | Renilla control light, replicate 1 | Renilla control light, replicate 2 | activity call
Ranbp21 | 1 | 64669 | 36163 | 4.00e5 | 3.32e5 | inactive
capt | 1 | 96410 | 1.01e5 | 7.18e5 | 7.82e5 | inactive
capt | 2 | 1.39e5 | 1.22e5 | 6.38e5 | 8.49e5 | inactive
capt | 3 | 2.93e5 | 2.72e5 | 7.18e5 | 7.02e5 | inactive
capt | 4 | 3.95e5 | 2.82e5 | 9.72e5 | 9.69e5 | inactive
CG14834 | 1 | 74307 | 75788 | 1.27e6 | 1.30e6 | inactive
CG14834 | 2 | 6.12e5 | 8.86e5 | 1.04e6 | 1.06e6 | inactive
Eig71Ec | 1 | 2.90e5 | 3.04e5 | 3.00e6 | 2.60e6 | inactive
Ravus | 1 | 25594 | 45506 | 6.29e5 | 1.09e6 | inactive
Vsp37A | 1 | 2.53e5 | 3.35e5 | 2.75e6 | 2.62e6 | inactive
O-fut1 | 1 | 9.92e5 | 5.37e5 | 3.00e6 | 2.05e6 | inactive
O-fut1 | 2 | 63267 | 67030 | 1.17e5 | 85568 | inactive
Seipin | 1 | 3.04e5 | 3.18e5 | 4.47e6 | 3.62e6 | inactive
Osi8 | 1 | 1.02e5 | 91095 | 2.13e6 | 3.37e6 | inactive
Osi8 | 2 | 2.50e5 | 2.79e5 | 5.56e5 | 6.46e5 | inactive
CG8939 | 1 | 74978 | 56473 | 4.71e5 | 5.93e5 | inactive
Xpc | 1 | 1.79e6 | 1.59e6 | 2.36e6 | 2.32e6 | inactive
CG12521 | 1 | 3.10e5 | 2.53e5 | 3.00e6 | 2.49e6 | inactive
BBS8 | 1 | 34967 | 34275 | 3.07e5 | 4.03e5 | inactive
BBS8 | 2 | 6.46e5 | 4.70e5 | 7.89e5 | 9.33e5 | inactive
Sodh2 | 1 | 68907 | 87082 | 1.59e6 | 2.40e6 | inactive
upd1 | 1 | 5.20e5 | 3.54e5 | 4.08e6 | 3.24e6 | inactive
upd1 | 2 | 3.60e5 | 6.28e5 | 6.21e5 | 9.39e5 | inactive
Rtca | 1 | 1.19e5 | 72507 | 6.61e5 | 6.81e5 | inactive
CG46298 | 1 | 1.02e5 | 57222 | 1.35e6 | 8.03e5 | inactive
CG46298 | 2 | 1.13e6 | 8.61e5 | 9.21e5 | 9.20e5 | inactive
Rok | 1 | 1.16e5 | 1.30e5 | 7.57e5 | 8.35e5 | inactive
Rok | 2 | 4.29e5 | 4.59e5 | 8.46e5 | 7.46e5 | inactive
Rok | 3 | – | – | – | – | inactive
CG6972 + CCAP | 1 | 3.54e5 | 5.34e5 | 5.80e5 | 1.08e6 | inactive
CG42588 | 1 | 1.45e5 | 1.54e5 | 1.19e6 | 1.99e6 | inactive
CG42588 | 2 | 6.46e5 | 6.45e5 | 2.67e6 | 2.39e6 | inactive
CG42588 | 3 | 4.17e5 | 3.46e5 | 4.51e5 | 3.00e5 | inactive
CG42588 | 4 | 7.98e5 | 5.65e5 | 2.57e6 | 2.12e6 | inactive
CG13309 | 1 | 2.21e5 | 1.95e5 | 2.01e6 | 1.92e6 | inactive
Agxt | 1 | 88366 | 64049 | 7.23e5 | 5.16e5 | inactive
Agxt | 2 | 3.52e5 | 3.13e5 | 8.23e5 | 7.17e5 | inactive
CysRS-m | 1 | 1.27e6 | 1.40e6 | 2.60e6 | 2.52e6 | inactive
CG3860 | 1 | 1.30e6 | 5.10e5 | 1.71e6 | 9.11e5 | inactive
CG15731 | 1 | 3.69e5 | 4.78e5 | 3.18e6 | 3.60e6 | inactive
CG15731 | 2 | 5.48e5 | 5.05e5 | 2.02e6 | 2.32e6 | inactive
CG15731 | 3 | 4.48e5 | 2.63e5 | 7.56e5 | 7.08e5 | inactive
CG12009 | 1 | 6.19e5 | 6.05e5 | 1.31e6 | 9.25e5 | inactive
CG12009 | 2 | 3.37e5 | 2.48e5 | 7.10e5 | 4.88e5 | inactive
mrn | 1 | 31293 | 36534 | 4.76e5 | 3.56e5 | inactive
CG15370 | 1 | 5.88e5 | 6.01e5 | 1.34e6 | 1.59e6 | inactive
CG15370 | 2 | 4.20e5 | 3.83e5 | 1.81e6 | 1.58e6 | inactive
CG17124 | 1 | 4.25e5 | 3.52e5 | 2.15e6 | 2.26e6 | inactive
CG17124 | 2 | 7.55e5 | 5.32e5 | 1.66e6 | 1.12e6 | inactive
CG42449 | 1 | 2.16e5 | 2.57e5 | 2.06e6 | 2.34e6 | inactive
CG42449 | 2 | 1.25e6 | 1.11e6 | 1.16e6 | 9.57e5 | inactive
Or65c | 1 | 6.47e5 | 7.78e5 | 1.03e6 | 1.06e6 | inactive
Gr36b | 1 | 7.87e5 | 5.64e5 | 1.95e6 | 1.08e6 | inactive
Gr36b | 2 | 5.40e5 | 4.58e5 | 1.55e6 | 1.67e6 | inactive
Gr36b | 3 | 8.95e5 | 6.16e5 | 1.59e6 | 1.67e6 | inactive
Glut3 | 1 | 88605 | 1.14e5 | 1.75e6 | 2.06e6 | inactive
Glut3 | 2 | 3.66e5 | 3.40e5 | 6.16e5 | 7.03e5 | inactive
Su(z)12 | 1 | 1.50e5 | 1.04e5 | 1.71e6 | 1.81e6 | inactive
Su(z)12 | 2 | 3.35e5 | 3.56e5 | 6.37e5 | 5.54e5 | inactive

Records listed so far whose target name starts with O or o (5):
Target gene | dsRNA no. | firefly reporter light, replicate 1 | firefly reporter light, replicate 2 | Renilla control light, replicate 1 | Renilla control light, replicate 2 | activity call
O-fut1 | 1 | 9.92e5 | 5.37e5 | 3.00e6 | 2.05e6 | inactive
O-fut1 | 2 | 63267 | 67030 | 1.17e5 | 85568 | inactive
Osi8 | 1 | 1.02e5 | 91095 | 2.13e6 | 3.37e6 | inactive
Osi8 | 2 | 2.50e5 | 2.79e5 | 5.56e5 | 6.46e5 | inactive
Or65c | 1 | 6.47e5 | 7.78e5 | 1.03e6 | 1.06e6 | inactive
